In the supplement of paper PMC3334620:
In all, about 33,000 sequences were measured (“E-score (-0.5 to 0.5)”: median about -0.0034, highest 2% from about 0.25 on). The list shows a part of the results.

Biological target: T1, Yap3 (UniProt P38749)
T1 sequence: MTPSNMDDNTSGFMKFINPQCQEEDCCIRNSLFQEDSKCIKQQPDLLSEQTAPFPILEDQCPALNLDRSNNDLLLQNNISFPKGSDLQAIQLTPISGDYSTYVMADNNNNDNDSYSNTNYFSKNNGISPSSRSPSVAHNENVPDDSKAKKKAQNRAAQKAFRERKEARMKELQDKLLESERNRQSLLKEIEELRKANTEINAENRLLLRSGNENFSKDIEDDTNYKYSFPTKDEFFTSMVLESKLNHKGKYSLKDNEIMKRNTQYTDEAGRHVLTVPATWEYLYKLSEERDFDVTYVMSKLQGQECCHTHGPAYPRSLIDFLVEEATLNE
Experiment: PBM E-score (8-mer binding enrichment) (E-score (-0.5 to 0.5)); higher = stronger / more preferred TF binding
Conditions: protein concentration: 100 nM; construct: GST-full length
In short: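 Detection of bound protein used fluorescent anti-GST, with scans normalised by masliner. The proteins were GST-tagged yeast transcription factors applied at about 100-200 nM to universal all-10-mer Agilent arrays made double-stranded by primer extension. Each ungapped eight-base word, pooled with its reverse complement, was scored with an E-score from the Universal PBM Analysis Suite.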

Row | Sequence | PBM E-score
1 | CGTCGACG | -0.159
2 | GTAGTTGA | 0.192
3 | AAGGCGGA | -0.0735
4 | ACAACCCA | 0.0442
5 | AGTGCATC | -0.0272
6 | CGCACCCA | -0.0572
7 | CAGCACGC | -0.0604
8 | ATGATGAG | 0.12
9 | ACAACGGC | -0.074
10 | GTCTACTA | 0.0762
11 | AGTGCACC | 0.103
12 | ACACACAG | -0.0238
13 | CATGCGGA | -0.201
14 | CCAGGATA | 0.0674
15 | ACGTTATA | 0.221
16 | CGCTTCAG | -0.0755
17 | AACCTGAG | -0.12
18 | CTCAACGC | -0.194
19 | CGAGGTAG | -0.295
20 | AAATGACG | 0.195
21 | CATCTTAA | 0.00845
22 | GCACCTCA | 0.0919
23 | CGCTAATC | -0.0908
24 | CCGTTAGC | 0.00514
25 | CAGATTCC | -0.184

Row | Sequence | PBM E-score
26 | GGAATTTA | 0.173
27 | AACCTCCC | -0.233
28 | CGGTGATA | 0.129
29 | CTATCGCC | -0.207
30 | AAGCAACT | 0.172
31 | AAAAAACG | 0.315
32 | AGGCGTTG | -0.124
33 | ACACCTCC | -0.0206
34 | GTGGATCA | 0.0706
35 | ATACAATA | 0.242
36 | ACCCTCGC | -0.0339
37 | CATGAGAG | 0.108
38 | GCGGATGA | 0.0488
39 | ACCAATCT | 0.167
40 | CTGATGAC | 0.0253
41 | CTTGTATC | 0.0582
42 | GCCGGACC | -0.404
43 | AGGCAGCG | -0.137
44 | ATCAGAAG | 0.131
45 | CACCTCAC | 0.064
46 | GTAGGGCA | 0.0216
47 | ATCCCTTG | -0.0605
48 | GAGATACC | 0.159
49 | CAAGGAAG | -0.0688
50 | GATGTCCA | -0.0393

Row | Sequence | PBM E-score
51 | TGAGTGAA | 0.101
52 | AAATCGTG | 0.184
53 | CTGACCTC | -0.151
54 | AGTAGTTG | 0.18
55 | TACCGCGA | 0.112
56 | GTGAAAGA | 0.114
57 | GAACCAGC | 0.0448
58 | ATAGTGTG | 0.146
59 | GCACCTGC | -0.0705
60 | CTAACTTA | 0.167
61 | ACCTAAAT | 0.0556
62 | CACGGATC | -0.0166
63 | GGGTCTAC | -0.218
64 | GGATAGCA | 0.0958
65 | CTTCCTAC | -0.167
66 | CTGTTAGA | -0.0952
67 | GGTCAGGA | -0.108
68 | ATCTCAGC | 0.0754
69 | CGCATTCC | -0.188
70 | AAAGCCAT | 0.0885
71 | AAATGGTC | 0.013
72 | TACCGACA | 0.0241
73 | TACGGAAA | 0.206
74 | CGTGCCCA | -0.143
75 | CACAGGGC | -0.281

Not a retest: entries from further up.
Row | Sequence | PBM E-score
25 | CAGATTCC | -0.184
26 | GGAATTTA | 0.173
27 | AACCTCCC | -0.233
28 | CGGTGATA | 0.129
29 | CTATCGCC | -0.207
30 | AAGCAACT | 0.172
31 | AAAAAACG | 0.315
32 | AGGCGTTG | -0.124
33 | ACACCTCC | -0.0206
34 | GTGGATCA | 0.0706
35 | ATACAATA | 0.242
36 | ACCCTCGC | -0.0339
37 | CATGAGAG | 0.108
38 | GCGGATGA | 0.0488
39 | ACCAATCT | 0.167
40 | CTGATGAC | 0.0253
41 | CTTGTATC | 0.0582
42 | GCCGGACC | -0.404
43 | AGGCAGCG | -0.137
44 | ATCAGAAG | 0.131
45 | CACCTCAC | 0.064
46 | GTAGGGCA | 0.0216
47 | ATCCCTTG | -0.0605
48 | GAGATACC | 0.159
49 | CAAGGAAG | -0.0688
50 | GATGTCCA | -0.0393
51 | TGAGTGAA | 0.101
52 | AAATCGTG | 0.184
53 | CTGACCTC | -0.151
54 | AGTAGTTG | 0.18
55 | TACCGCGA | 0.112
56 | GTGAAAGA | 0.114
57 | GAACCAGC | 0.0448
58 | ATAGTGTG | 0.146
59 | GCACCTGC | -0.0705
60 | CTAACTTA | 0.167
61 | ACCTAAAT | 0.0556
62 | CACGGATC | -0.0166
63 | GGGTCTAC | -0.218
64 | GGATAGCA | 0.0958
65 | CTTCCTAC | -0.167
66 | CTGTTAGA | -0.0952
67 | GGTCAGGA | -0.108
68 | ATCTCAGC | 0.0754
69 | CGCATTCC | -0.188
70 | AAAGCCAT | 0.0885
71 | AAATGGTC | 0.013
72 | TACCGACA | 0.0241
73 | TACGGAAA | 0.206
74 | CGTGCCCA | -0.143
75 | CACAGGGC | -0.281

Following part.

Row | Sequence | PBM E-score
76 | CACGGCAA | 0.0797
77 | AACATCAG | 0.142
78 | ACTAAGCG | 0.164
79 | ATCGCAGA | -0.123
80 | GCCAAAGC | -0.18
81 | ATCGTTTG | -0.0122
82 | AATGATAG | 0.172
83 | GACTACAC | 0.0722
84 | GTGAGTGA | -0.0996
85 | ACCCTAAC | 0.154
86 | CCACGGCG | -0.139
87 | TGGCCCAA | -0.182
88 | GCAAGACA | -0.0519
89 | GTTAATAA | 0.223
90 | CTGTCGAC | -0.0938
91 | ACGTCGTA | -0.0916
92 | ATTCTAGA | -0.0715
93 | ACGAGTGG | -0.116
94 | AGTGATTG | 0.0482
95 | CCGGTGGA | -0.133
96 | ACAGTCGC | -0.15
97 | AGCCCATC | -0.189
98 | ACGACACT | 0.0466
99 | CCACTCTC | -0.119
100 | AGGCTCGA | -0.102

Row | Sequence | PBM E-score
101 | CCGACCAA | -0.0619
102 | GGGCAGCA | -0.221
103 | GCATGCAA | 0.0908
104 | ATCTGCGC | -0.0825
105 | ACGCGCTA | 0.0658
106 | TAAAACCA | 0.0776
107 | CGCCGCCC | -0.223
108 | CTGCAGCA | 0.099
109 | CTTCAGTA | -0.157
110 | CAGGCAAG | -0.0287
111 | GAGGAAAA | 0.0645
112 | CGATCATA | 0.13
113 | CAGGTCAA | -0.134
114 | GGACGCCC | -0.27
115 | TGGTGAAA | 0.0494
116 | AACGGTCT | -0.00177
117 | AAACACTG | 0.125
118 | AAGGTAGG | 0.0439
119 | CCAGGTCG | -0.0498
120 | ACGTCTCA | 0.0286
121 | GCACATAC | -0.215
122 | ACGGTTTC | -0.0984
123 | GCCCGATA | -0.0253
124 | CCGCAAAG | 0.0819
125 | CACGTGAG | -0.0452

Row | Sequence | PBM E-score
126 | AGGAGCAA | -0.15
127 | CTAGCTCA | 0.0471
128 | CATGGATC | -0.0545
129 | AGTATGCC | -0.0253
130 | AATTCGAA | 0.0447
131 | GATAGTTA | 0.167
132 | CTGGTCGA | -0.359
133 | CCGTCACG | -0.129
134 | AGCCAATC | -0.0995
135 | GCTATGAC | 0.054
136 | ACGTCAGC | 0.0264
137 | AGGGCCAA | -0.164
138 | GAGTGGAA | 0.0318
139 | AATCCAGG | 0.106
140 | AATGCGAT | 0.00603
141 | ACAGACGA | 0.0461
142 | CGTAGTAA | 0.0845
143 | ACCTAGCA | 0.0768
144 | CCAAAGGC | -0.198
145 | AAGATATG | 0.206
146 | GAAGGCAA | -0.0146
147 | TCCGAGCA | 0.0798
148 | AATAAGAC | 0.0513
149 | CGTCTAGC | -0.011
150 | AAGCCCGA | -0.214

Row | Sequence | PBM E-score
151 | GGATTAAC | -0.0443
152 | CCCGCCTA | -0.0814
153 | ACACAATC | 0.0379
154 | CGAGAATC | 0.0323
155 | ATCGACCA | -0.131
156 | AGGATTGC | -0.153
157 | AAATCCCG | 0.0249
158 | CAGACGGG | -0.235
159 | GACAAATA | 0.299
160 | AGGACTCG | -0.183
161 | CAGGGATC | -0.285
162 | ACCCGCAC | -0.142
163 | TGATTGCA | 0.154
164 | ATGAGCCA | 0.0635
165 | CCCCACGC | -0.246
166 | ATGATATC | 0.0625
167 | CGCCGCTC | -0.168
168 | ATCGGCTC | 0.103
169 | ACTTCGAG | -0.0181
170 | GGTGCCAA | -0.191
171 | ACACTTGG | -0.0144
172 | AGGTAGGG | -0.179
